Results: article PMC9385634
No constants are given. Whether binding was seen depends on the method and setting. For part of these data: In cells and extracts the contact can be indirect. Some results given as binding are weak or reduced against the parent protein; the word gives no strength. For part of these data: Sequences can lack the tags named with a protein. Values belong to the binder of their own block, whether it stands above or below them.

By UniProt entry, the sequences of proteins in these tests, tags left out.
UniProt P35222: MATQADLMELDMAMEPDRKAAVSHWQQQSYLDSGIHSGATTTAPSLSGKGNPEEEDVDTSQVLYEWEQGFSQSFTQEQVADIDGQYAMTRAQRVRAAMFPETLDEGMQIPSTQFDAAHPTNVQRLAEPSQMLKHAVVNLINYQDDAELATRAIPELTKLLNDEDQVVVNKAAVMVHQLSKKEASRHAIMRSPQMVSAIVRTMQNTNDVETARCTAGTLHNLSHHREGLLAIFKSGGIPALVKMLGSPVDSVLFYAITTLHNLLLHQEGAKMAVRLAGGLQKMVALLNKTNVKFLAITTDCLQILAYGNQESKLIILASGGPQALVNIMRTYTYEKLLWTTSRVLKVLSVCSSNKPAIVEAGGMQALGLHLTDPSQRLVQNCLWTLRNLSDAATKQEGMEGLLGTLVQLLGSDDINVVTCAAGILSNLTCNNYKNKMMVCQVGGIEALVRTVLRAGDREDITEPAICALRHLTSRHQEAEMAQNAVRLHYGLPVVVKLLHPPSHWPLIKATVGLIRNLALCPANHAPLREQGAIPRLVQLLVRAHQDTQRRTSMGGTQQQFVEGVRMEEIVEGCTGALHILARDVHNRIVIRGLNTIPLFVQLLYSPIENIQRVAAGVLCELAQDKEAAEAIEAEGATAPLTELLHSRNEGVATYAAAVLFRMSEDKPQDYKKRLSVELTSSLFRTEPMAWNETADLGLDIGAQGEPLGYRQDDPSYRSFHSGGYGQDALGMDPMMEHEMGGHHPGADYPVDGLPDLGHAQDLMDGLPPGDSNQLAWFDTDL

Assays:
[1] = biological target: β-catenin (CTNNB1), endogenous in GBM tumorspheres (human (endogenous in patient-derived GBM tumorspheres)) (UniProt P35222); assay: co-IP; lysates of GBM tumorspheres treated with DFS for 72 h or untreated; anti-FOXM1 or anti-β-catenin antibody overnight at 4 °C, protein A/G beads, washed with PBST; immunoblot of the endogenous proteins
[2] = biological target: GST-tagged β-catenin (UniProt P35222); assay: pull-down; purified GST-β-catenin on glutathione agarose beads with Flag-FOXM1 lysate from TS15-88 and TS13-64, binding buffer, about 1 h at 4 °C; DFS 5 and 10 μM; anti-Flag immunoblot; only the target purified
[3] = biological target: recombinant human β-catenin protein (human) (UniProt P35222); assay: SPR; recombinant human β-catenin and FOXM1 with DFS 12.5 to 50 μM; who was immobilised is not stated

binding [1]: binds
B1: Forkhead Box M1 (FOXM1), endogenous in GBM tumorspheres (protein, UniProt Q08050 1-763)
chain: MKTSPRRPLILKRRRLPLPVQNAPSETSEEEPKRSPAQQESNQAEASKEVAESNSCKFPAGIKIINHPTMPNTQVVAIPNNANIHSIITALTAKGKESGSSGPNKFILISCGGAPTQPPGLRPQTQTSYDAKRTEVTLETLGPKPAARDVNLPRPPGALCEQKRETCADGEAAGCTINNSLSNIQWLRKMSSDGLGSRSIKQEMEEKENCHLEQRQVKVEEPSRPSASWQNSVSERPPYSYMAMIQFAINSTERKRMTLKDIYTWIEDHFPYFKHIAKPGWKNSIRHNLSLHDMFVRETSANGKVSFWTIHPSANRYLTLDQVFKPLDPGSPQLPEHLESQQKRPNPELRRNMTIKTELPLGARRKMKPLLPRVSSYLVPIQFPVNQSLVLQPSVKVPLPLAASLMSSELARHSKRVRIAPKVLLAEEGIAPLSSAGPGKEEKLLFGEGFSPLLPVQTIKEEEIQPGEEMPHLARPIKVESPPLEEWPSPAPSFKEESSHSWEDSSQSPTPRPKKSYSGLRSPTRCVSEMLVIQHRERRERSRSRRKQHLLPPCVDEPELLFSEGPSTSRWAAELPFPADSSDPASQLSYSQEVGGPFKTPIKETLPISSTPSKSVLPRTPESWRLTPPAKVGGLDFSPVQTSQGASDPLPDPLGLMDLSTTPLQSAPPLESPQRLLSSEPLDLISVPFGNSSPSDIDVPKPGSPEPQVSGLAANRSLTEGLVLDTMNDSLSKILLDISFPGLDEDPLGPDNINWSQFIPELQ

binding [2]: binds
B2: Flag-tagged FOXM1 (protein, UniProt Q08050 1-763)
chain: MKTSPRRPLILKRRRLPLPVQNAPSETSEEEPKRSPAQQESNQAEASKEVAESNSCKFPAGIKIINHPTMPNTQVVAIPNNANIHSIITALTAKGKESGSSGPNKFILISCGGAPTQPPGLRPQTQTSYDAKRTEVTLETLGPKPAARDVNLPRPPGALCEQKRETCADGEAAGCTINNSLSNIQWLRKMSSDGLGSRSIKQEMEEKENCHLEQRQVKVEEPSRPSASWQNSVSERPPYSYMAMIQFAINSTERKRMTLKDIYTWIEDHFPYFKHIAKPGWKNSIRHNLSLHDMFVRETSANGKVSFWTIHPSANRYLTLDQVFKPLDPGSPQLPEHLESQQKRPNPELRRNMTIKTELPLGARRKMKPLLPRVSSYLVPIQFPVNQSLVLQPSVKVPLPLAASLMSSELARHSKRVRIAPKVLLAEEGIAPLSSAGPGKEEKLLFGEGFSPLLPVQTIKEEEIQPGEEMPHLARPIKVESPPLEEWPSPAPSFKEESSHSWEDSSQSPTPRPKKSYSGLRSPTRCVSEMLVIQHRERRERSRSRRKQHLLPPCVDEPELLFSEGPSTSRWAAELPFPADSSDPASQLSYSQEVGGPFKTPIKETLPISSTPSKSVLPRTPESWRLTPPAKVGGLDFSPVQTSQGASDPLPDPLGLMDLSTTPLQSAPPLESPQRLLSSEPLDLISVPFGNSSPSDIDVPKPGSPEPQVSGLAANRSLTEGLVLDTMNDSLSKILLDISFPGLDEDPLGPDNINWSQFIPELQ

binding [3]: binds
B3: FOXM1 used in the SPR analysis (protein, UniProt Q08050 1-763)
chain: MKTSPRRPLILKRRRLPLPVQNAPSETSEEEPKRSPAQQESNQAEASKEVAESNSCKFPAGIKIINHPTMPNTQVVAIPNNANIHSIITALTAKGKESGSSGPNKFILISCGGAPTQPPGLRPQTQTSYDAKRTEVTLETLGPKPAARDVNLPRPPGALCEQKRETCADGEAAGCTINNSLSNIQWLRKMSSDGLGSRSIKQEMEEKENCHLEQRQVKVEEPSRPSASWQNSVSERPPYSYMAMIQFAINSTERKRMTLKDIYTWIEDHFPYFKHIAKPGWKNSIRHNLSLHDMFVRETSANGKVSFWTIHPSANRYLTLDQVFKPLDPGSPQLPEHLESQQKRPNPELRRNMTIKTELPLGARRKMKPLLPRVSSYLVPIQFPVNQSLVLQPSVKVPLPLAASLMSSELARHSKRVRIAPKVLLAEEGIAPLSSAGPGKEEKLLFGEGFSPLLPVQTIKEEEIQPGEEMPHLARPIKVESPPLEEWPSPAPSFKEESSHSWEDSSQSPTPRPKKSYSGLRSPTRCVSEMLVIQHRERRERSRSRRKQHLLPPCVDEPELLFSEGPSTSRWAAELPFPADSSDPASQLSYSQEVGGPFKTPIKETLPISSTPSKSVLPRTPESWRLTPPAKVGGLDFSPVQTSQGASDPLPDPLGLMDLSTTPLQSAPPLESPQRLLSSEPLDLISVPFGNSSPSDIDVPKPGSPEPQVSGLAANRSLTEGLVLDTMNDSLSKILLDISFPGLDEDPLGPDNINWSQFIPELQ
